Results: publication PMC5512577, “PDE6δ-mediated sorting of INPP5E into the cilium is determined by cargo-carrier affinity” (Nature Communications, 2016)
These are yes or no findings as the source states them, for the method shown. In cells and extracts the contact can be indirect. Binding calls can cover weak binding; strength is not graded here.

The chains behind the UniProt entries cited, without tags or fusion partners. Where a name states a change or a piece, a line headed by the entry shows the natural chain unless it says otherwise.
UniProt Q9JII1: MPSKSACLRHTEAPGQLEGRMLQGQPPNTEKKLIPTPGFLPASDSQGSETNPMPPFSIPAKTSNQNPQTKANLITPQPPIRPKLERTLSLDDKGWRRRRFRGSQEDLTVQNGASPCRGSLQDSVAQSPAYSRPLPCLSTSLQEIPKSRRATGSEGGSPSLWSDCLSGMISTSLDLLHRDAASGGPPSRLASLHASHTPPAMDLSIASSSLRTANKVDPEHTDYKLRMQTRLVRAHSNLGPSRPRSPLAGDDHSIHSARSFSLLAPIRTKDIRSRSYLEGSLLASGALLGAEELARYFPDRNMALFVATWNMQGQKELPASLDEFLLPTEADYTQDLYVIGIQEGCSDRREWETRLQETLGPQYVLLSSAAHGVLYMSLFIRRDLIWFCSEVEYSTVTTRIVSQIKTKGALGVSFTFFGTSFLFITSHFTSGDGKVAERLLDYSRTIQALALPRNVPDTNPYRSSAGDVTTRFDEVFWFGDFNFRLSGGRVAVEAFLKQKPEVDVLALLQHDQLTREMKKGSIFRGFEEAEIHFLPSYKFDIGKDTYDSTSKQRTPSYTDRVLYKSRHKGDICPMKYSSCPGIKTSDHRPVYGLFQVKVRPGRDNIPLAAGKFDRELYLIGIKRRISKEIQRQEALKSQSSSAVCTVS

Target: GST-PDE6δ (UniProt O43924)
Test: pull-down; GSH-beads with 20 μM GST-PDE6δ incubated 1 h at 4 °C with cleared IMCD3 lysates; then with or without 20 μM Arl2 or Arl3 for 1 h; anti-GFP blot; only the target purified

binding | Substance
binds | LAP-tagged mouse INPP5E(KS) (S641K/V643S) (from UniProt Q9JII1)
binds | LAP-tagged mouse INPP5E(WT) (from UniProt Q9JII1)
